Some test systems named below: C. auris AR-384; C. auris AR-386; C. auris AR-387.
Holding throughout (assay): growth relative to vehicle control (OD600 ratio) (fraction); higher = less inhibition
Settings in all cases: 24 h

Several values for one entry are separate records, joined by “and”; a condition that tells them apart may be missing. Equal values may be shown once. Where a name gives a salt, the structure may show the parent alone. This is one part of the list. Many values rest on one well or one pass, so single values are uncertain.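 The three strains are clinical Candida auris isolates from the CDC resistance isolate bank, from clades III, IV and I, grown in RPMI-1640 at 35°C. Growth is background-corrected OD600 relative to vehicle-only wells on the same plate; a hit meant over 50% inhibition in at least two strains plus a plate-corrected B-score above 0.1.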

Turning to `CN1C(CCl)Nc2cc(Cl)c(S(N)(=O)=O)cc2S1(=O)=O` (stereo unspecified) [Methyclothiazide], the growth was 0.93 in the assay with C. auris AR-384 (1 µM); 0.64 in the assay with C. auris AR-384 (10 µM); 0.86 with C. auris AR-386 (1 µM); 0.67 with C. auris AR-386 (10 µM); 0.71 with C. auris AR-387 (1 µM); 0.83 in the assay with C. auris AR-387 (10 µM).

Regarding `CC(=O)NS(=O)(=O)c1ccc(N)cc1` [Sulfacetamide sodium salt hydrate], the growth with C. auris AR-384 (1 µM) turned out to be 1.06; in the assay with C. auris AR-384 (10 µM), 1.12; in the assay with C. auris AR-386 (1 µM) it was 1.1; in the assay with C. auris AR-386 (10 µM), 0.85; in the assay with C. auris AR-387 (1 µM) it was 0.76; with C. auris AR-387 (10 µM), 0.67.

As to `CC1CCc2c(N3CCC(O)CC3)c(F)cc3c(=O)c(C(=O)O)cn1c23` (stereo unspecified) [Nadifloxacin], the growth with C. auris AR-384 (1 µM) was determined as 1.06; in the assay with C. auris AR-384 (10 µM), 1.12; in the assay with C. auris AR-386 (1 µM), 1.37; in the assay with C. auris AR-386 (10 µM), 1.07; with C. auris AR-387 (1 µM), 1.06; in the assay on C. auris AR-387 (10 µM) it was 0.86.

As for `CC[C@H](C)[C@H](NC(=O)[C@H](Cc1ccccc1)NC(=O)[C@H](CCC(=O)O)NC(=O)[C@H](CCCCN)NC(=O)[C@H](C)NC(=O)[C@H](C)NC(=O)[C@H](CCC(N)=O)NC(=O)CNC(=O)[C@H](CCC(=O)O)NC(=O)[C@H](CC(C)C)NC(=O)[C@H](Cc1ccc(O)cc1)NC(=O)[C@H](CO)NC(=O)[C@H](CO)NC(=O)[C@@H](NC(=O)[C@H](CC(=O)O)NC(=O)[C@H](CO)NC(=O)[C@@H](NC(=O)[C@H](Cc1ccccc1)NC(=O)[C@@H](NC(=O)CNC(=O)[C@H](CCC(=O)O)NC(=O)CNC(=O)[C@@H](N)Cc1c[nH]cn1)[C@@H](C)O)[C@@H](C)O)C(C)C)C(=O)N[C@@H](C)C(=O)N[C@@H](Cc1c[nH]c2ccccc12)C(=O)N[C@@H](CC(C)C)C(=O)N[C@H](C(=O)N[C@@H](CCCCN)C(=O)NCC(=O)N[C@@H](CCCNC(=N)N)C(=O)O)C(C)C` [Albiglutide], the growth with C. auris AR-384 (1 µM) came out at 0.54; in the assay on C. auris AR-384 (10 µM), 0.6; in the assay with C. auris AR-386 (1 µM), 0.87; in the assay with C. auris AR-386 (10 µM) it was 0.72; in the assay with C. auris AR-387 (1 µM), 0.68; in the assay with C. auris AR-387 (10 µM) it was 0.74.

`CCN(CC)CCOC(=O)c1ccc(N)cc1` [Procaine HCl]: the growth in the assay on C. auris AR-384 (1 µM) worked out at 0.96; in the assay on C. auris AR-384 (10 µM), 0.86; in the assay with C. auris AR-386 (1 µM), 0.74; with C. auris AR-386 (10 µM), 1; in the assay on C. auris AR-387 (1 µM) it was 1.15; in the assay with C. auris AR-387 (10 µM), 0.74.

Regarding `NC(=O)[C@@H](CCC(F)(F)F)N(Cc1ccc(-c2ncon2)cc1F)S(=O)(=O)c1ccc(Cl)cc1`, the growth with C. auris AR-384 (1 µM) was determined as 1.14; with C. auris AR-384 (10 µM), 0.59; with C. auris AR-386 (1 µM), 0.81; with C. auris AR-386 (10 µM) it was 1.04; in the assay with C. auris AR-387 (1 µM) it was 0.76; in the assay with C. auris AR-387 (10 µM) it was 0.67.

For `Clc1ccccc1CN1CCc2sccc2C1` [Ticlopidine HCl], the growth in the assay on C. auris AR-384 (1 µM) is 0.75; with C. auris AR-384 (10 µM), 1.22; in the assay on C. auris AR-386 (1 µM) it was 0.92; in the assay with C. auris AR-386 (10 µM), 0.99; in the assay with C. auris AR-387 (1 µM), 0.79; in the assay with C. auris AR-387 (10 µM), 1.11.

For the compound `C[C@@H]1CCN(C(=O)CC#N)C[C@@H]1N(C)c1ncnc2[nH]ccc12`, the growth was 0.79 and 0.8 with C. auris AR-384 (1 µM); 0.66 and 0.75 with C. auris AR-384 (10 µM); 0.88 and 0.85 with C. auris AR-386 (1 µM); 0.97 and 0.55 with C. auris AR-386 (10 µM); 0.87 and 0.7 with C. auris AR-387 (1 µM); 1.06 and 0.75 in the assay with C. auris AR-387 (10 µM).

In the case of `CCOC(=O)[C@H](CCc1ccccc1)N[C@@H](C)C(=O)N1Cc2cc(OC)c(OC)cc2C[C@H]1C(=O)O` [Moexipril HCl], the growth in the assay with C. auris AR-384 (1 µM) was found to be 0.95; in the assay with C. auris AR-384 (10 µM), 1.02; in the assay on C. auris AR-386 (1 µM), 1; with C. auris AR-386 (10 µM), 1.1; in the assay with C. auris AR-387 (1 µM) it was 0.94; with C. auris AR-387 (10 µM), 0.74.

With `CCOc1nc2cccc(C(=O)OCc3oc(=O)oc3C)c2n1Cc1ccc(-c2ccccc2-c2noc(=O)[nH]2)cc1` [Azilsartan Medoxomil], the growth came out at 0.9 in the assay with C. auris AR-384 (1 µM); 0.85 in the assay with C. auris AR-384 (10 µM); 0.93 in the assay with C. auris AR-386 (1 µM); 0.98 with C. auris AR-386 (10 µM); 0.82 with C. auris AR-387 (1 µM); 0.94 in the assay on C. auris AR-387 (10 µM).

Consider `COC(=O)N[C@H](C(=O)N[C@@H](Cc1ccccc1)[C@@H](O)CN(Cc1ccc(-c2ccccn2)cc1)NC(=O)[C@@H](NC(=O)OC)C(C)(C)C)C(C)(C)C` [Atazanavir], for which the growth in the assay with C. auris AR-384 (1 µM) turned out to be 0.82; with C. auris AR-384 (10 µM), 0.84; in the assay on C. auris AR-386 (1 µM), 0.92; in the assay on C. auris AR-386 (10 µM), 0.48; in the assay with C. auris AR-387 (1 µM), 0.99; with C. auris AR-387 (10 µM), 1.01.

With `CO[C@H]1O[C@@H]2O[C@@]3(C)CC[C@H]4[C@H](C)CC[C@@H]([C@H]1C)[C@@]24OO3` [Artemether], the growth in the assay on C. auris AR-384 (1 µM) is 0.71; in the assay with C. auris AR-384 (10 µM) it was 0.43; in the assay with C. auris AR-386 (1 µM), 1.13; in the assay on C. auris AR-386 (10 µM), 0.88; in the assay on C. auris AR-387 (1 µM), 0.76; in the assay on C. auris AR-387 (10 µM) it was 0.5.

Consider `Cc1ccc(=O)n(-c2ccccc2)c1` [Pirfenidone], for which the growth in the assay on C. auris AR-384 (1 µM) was determined as 0.9; in the assay with C. auris AR-384 (10 µM), 0.96; with C. auris AR-386 (1 µM) it was 0.74; in the assay with C. auris AR-386 (10 µM), 0.93; with C. auris AR-387 (1 µM), 0.71; in the assay with C. auris AR-387 (10 µM), 0.99.

As to `O=C1c2ccccc2C(=O)C1c1ccccc1` [Phenindione], the growth with C. auris AR-384 (1 µM) worked out at 0.88; in the assay with C. auris AR-384 (10 µM), 0.85; in the assay on C. auris AR-386 (1 µM), 1.03; in the assay on C. auris AR-386 (10 µM), 1.15; in the assay with C. auris AR-387 (1 µM), 1.08; in the assay on C. auris AR-387 (10 µM), 0.89.

For the compound `OCC(O)CN1CCN(c2ccccc2)CC1` (stereo unspecified) [Dropropizine], the growth with C. auris AR-384 (1 µM) worked out at 0.92; in the assay with C. auris AR-384 (10 µM) it was 0.94; in the assay with C. auris AR-386 (1 µM), 0.85; with C. auris AR-386 (10 µM), 1.02; in the assay on C. auris AR-387 (1 µM) it was 0.73; in the assay on C. auris AR-387 (10 µM), 0.71.

In the case of `Cc1c(-c2ccc(O)cc2)n(Cc2ccc(OCCN3CCCCCC3)cc2)c2ccc(O)cc12` [Bazedoxifene HCl], the growth with C. auris AR-384 (1 µM) is 0.66; in the assay with C. auris AR-384 (10 µM) it was 0.84; in the assay with C. auris AR-386 (1 µM) it was 0.85; in the assay on C. auris AR-386 (10 µM) it was 0.87; in the assay with C. auris AR-387 (1 µM), 0.73; in the assay with C. auris AR-387 (10 µM) it was 0.97.

With `CCn1c(=O)c(-c2cc[nH]n2)cc2c(C)nc(N)nc21`, the growth with C. auris AR-384 (1 µM) is 0.78; in the assay on C. auris AR-384 (10 µM), 0.7; in the assay with C. auris AR-386 (1 µM), 0.86; in the assay with C. auris AR-386 (10 µM), 0.91; in the assay on C. auris AR-387 (1 µM), 0.69; in the assay on C. auris AR-387 (10 µM), 0.74.

On to `CCCCN1CCCC[C@H]1C(=O)Nc1c(C)cccc1C` [Levobupivacaine HCl], for which the growth was 0.99 in the assay on C. auris AR-384 (1 µM); 0.93 in the assay with C. auris AR-384 (10 µM); 1.23 in the assay on C. auris AR-386 (1 µM); 1.22 with C. auris AR-386 (10 µM); 1.31 with C. auris AR-387 (1 µM); 1.48 in the assay on C. auris AR-387 (10 µM).

With `COc1cc(Nc2c(C#N)cnc3cc(OCCCN4CCN(C)CC4)c(OC)cc23)c(Cl)cc1Cl` [Bosutinib (SKI-606)], the growth worked out at 0.86 in the assay with C. auris AR-384 (1 µM); 0.66 in the assay with C. auris AR-384 (10 µM); 0.59 in the assay with C. auris AR-386 (1 µM); 0.97 in the assay with C. auris AR-386 (10 µM); 1.13 with C. auris AR-387 (1 µM); 0.89 with C. auris AR-387 (10 µM).

As to `CN1[C@@H]2CC[C@H]1C[C@@H](OC(=O)c1c[nH]c3ccccc13)C2` [Tropisetron HCl], the growth in the assay on C. auris AR-384 (1 µM) turned out to be 0.94; with C. auris AR-384 (10 µM), 1.39; in the assay on C. auris AR-386 (1 µM), 0.74; with C. auris AR-386 (10 µM) it was 1.28; in the assay on C. auris AR-387 (1 µM), 0.81; in the assay on C. auris AR-387 (10 µM), 0.87.

Consider `Nc1nc2[nH]cc(CCc3ccc(C(=O)N[C@@H](CCC(=O)O)C(=O)O)cc3)c2c(=O)[nH]1` [Pemetrexed Disodium Hydrate], for which the growth with C. auris AR-384 (1 µM) was 0.65; in the assay with C. auris AR-384 (10 µM), 0.47; in the assay with C. auris AR-386 (1 µM), 0.66; in the assay with C. auris AR-386 (10 µM) it was 0.78; with C. auris AR-387 (1 µM) it was 0.7; with C. auris AR-387 (10 µM) it was 0.86.

The values are drawn from the supplement of paper PMC10470496.
